Assay results as given in PubChem BioAssay AID1259415 (National Center for Advancing Translational Sciences (NCATS), 2018).
Hit rate of the full screen: of about 410,000 compounds, about 18,000 (4.4%) were called active. The inconclusive results got no clear call from the source; some entries with a clear call stand among them for comparison. Rule as the data show it: active = activity change below about -60%; inconclusive = no clear call, values can overlap the other calls; inactive = above about -39%.

experiment: qHTS Assay for inhibitors of the human cytomegalovirus (HCMV); conditions: HFF cells, HCMV-luciferase reporter, 72 h; at 57.5 µM; hits give low values
Procedure, shortened: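 HFF cells seeded 16 h at 37C, treated with compounds, infected with luciferase-reporter HCMV at MOI 1 PFU/cell; luciferase read at 72 h post infection, normalized to buffer-only and Salinomycin controls.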
% is scaled to controls: 0 for no effect and ±100 for the full control effect.

Structure (SMILES) | activity change, negative = inhibition
COC(=O)c1ccc(NC(=O)c2ccccc2C(=O)Nc2ccc(C(=O)OC)cc2)cc1 | inconclusive: -57.8%
COc1ccc(NC(=O)[C@H](CCS(C)(=O)=O)N2Cc3ccccc3C2=O)c(OC)c1 | inconclusive: -46.7%
O=c1[nH]c2ccc(NCc3ccccc3OCc3ccc(Cl)cc3)cc2[nH]1 | active: -73%
COc1ccc(S(=O)(=O)N2CCN(C)CC2)cc1NC(=O)c1ccccc1C | inconclusive: -51.8%
CC(C)n1c2ccccc2c2cc([N+](=O)[O-])ccc21 | inconclusive: -47.3%
Cc1ccccc1C(=O)NCc1nc2cccnc2n1Cc1ccccc1 | inconclusive: -52.7%
COc1ccc(C2/C(=C(\O)c3ccc4c(c3)OCCO4)C(=O)C(=O)N2Cc2cccnc2)cc1 (stereo unspecified) | inconclusive: -50.8%
O=C(COC(=O)CNC(=O)c1ccc(Cl)cc1)NC1CCCCCC1 | inconclusive: 0%
O=C(NCc1ccncc1)C(=O)Nc1nc(C23CC4CC(CC(C4)C2)C3)cs1 | inconclusive: -44.6%
COCCN=C1N[C@@H](c2ccccc2)C(C(=O)OC)=C(C)N1Cc1ccccc1 | inactive: 13.2%
Cc1cc(=O)[nH]c2c1cnn2C(C)c1ccccc1 (stereo unspecified) | inconclusive: -41.1%
CN1c2ccccc2-c2nc3ccccc3n2C1c1ccncc1 (stereo unspecified) | inactive: 12%
O=C(NCSc1ccccc1)c1ccccc1 | inactive: 16%
Cc1ccsc1/C=N/n1c(COc2ccccc2)n[nH]c1=S | inconclusive: -42.8%
Cc1ccc(NS(=O)(=O)c2ccc3c(c2)NC(=O)CCS3)cc1C | inconclusive: 0%
Clc1ccc(NCc2cccnc2)cc1 | inconclusive: -50.6%
COc1cccc(-c2ncc3ccccc3c2COC(=O)c2cccc(Br)c2)c1 | inactive: -3.91%
Cc1nnc(SCC(=O)N/N=C/c2ccc(-c3ccc(C)c(Cl)c3)o2)s1 | active: -65.2%
Cc1nc2ccc(S(=O)(=O)Nc3cccc(-c4nc5cccnc5s4)c3C)cc2s1 | inconclusive: -42.9%
N#Cc1c(NC(=O)CSc2nc(N)cc(=O)[nH]2)sc2c1CCCCCC2 | inconclusive: -49.9%
CN(c1ccc([N+](=O)[O-])cc1C(=O)Nc1ccccc1)C1CCCCC1 | inactive: 6.47%
COc1ccc(C(=O)NCc2nnc(SCC(=O)N3CCCc4ccccc43)o2)cc1OC | inactive: 24.5%

Structure (SMILES) | activity change, negative = inhibition
Cc1cccc(-c2nsc(SCC(=O)c3ccc(Cl)cc3)n2)c1 | inconclusive: -46.8%
CCCSc1ncc(Cl)c(C(=O)N(Cc2ccc(N(C)C)cc2)C2CCS(=O)(=O)C2)n1 (stereo unspecified) | inconclusive: -54.2%
Cc1ccc(-c2nnc(SCC(=O)Nc3sc(C)c(C)c3C#N)n2C)cc1 | inconclusive: -41.9%
CSc1nc2ncc3c(n2n1)CC1c2ccccc2CCN1C3=O (stereo unspecified) | inactive: 3.61%
O=C(CN1CCN(c2ccc(O)cc2)CC1)Nc1ccc(SC(F)F)cc1 | inconclusive: -58.2%
Cc1cc(=O)oc2cc(OCC(=O)NC3CCN(Cc4ccccc4)CC3)c(Cl)cc12 | inconclusive: -47.7%
N#Cc1nc(-c2ccc(COc3ccccc3)o2)oc1NCc1ccccc1 | inconclusive: -52.7%
COc1cc(NC(=S)N(C)C)c(OC)cc1Cl | inconclusive: -54.9%
c1ccc2c(c1)CCc1ccccc1C2=C1CCNCC1 | inactive: 16.9%
CCC(O)c1cc2c(cc1NC(=O)c1cccc(Br)c1)OCCO2 (stereo unspecified) | inactive: -10.3%
Cn1c(=O)c2cc(NC(=O)CCc3ccc(O)cc3)ccc2n1Cc1cccc(C(F)(F)F)c1 | inconclusive: -47.8%
Cc1[nH][nH]c(=O)c1C(c1cc([N+](=O)[O-])ccc1O)c1c(C)[nH][nH]c1=O | inactive: -23.1%
COc1cccc(O)c1CN1CCC(Oc2ccc(C(=O)NCc3ccccn3)cc2)CC1 | inconclusive: -44%
Cc1cccc2cc(-c3ccccc3)c(-c3ccccc3)c[n+]12 | active: -96.5%
CCOc1cc(C2Nc3ccccc3NC3=C2C(=O)CC(C)(C)C3)ccc1O (stereo unspecified) | inactive: 41.5%
C/C(=N\Nc1cc(C)nc(-c2ccccc2O)n1)c1ccccc1 | inconclusive: -40.9%
CC(=O)c1ccc(NC(=O)C2CCCN(c3ncnc4c3nc3n4CCCCC3)C2)cc1 (stereo unspecified) | inconclusive: -50.7%
CC(C)C[C@H]1CN=C(Nc2ccccc2)N1CCCC1CCCCC1 | inconclusive: -50.8%
CN(Cc1nc(-c2ccc(Cl)cc2)no1)C(=O)c1ccco1 | inactive: -2.54%
COc1ccccc1NC(=S)NC1CCC(CC2CCC(NC(=S)Nc3ccccc3OC)CC2)CC1 (stereo unspecified) | inconclusive: -46.5%
CCCCCOC(=O)C1[C@H]2C(=O)N(Cc3cccs3)C[C@]23C=C[C@H]1O3 (stereo partly specified) | inactive: 0.343%
CC(=O)Nc1ccc(SC[C@H](Cc2ccccc2)N2CCN(CCc3ccccc3)CCC2=O)cc1 | inactive: 4.38%

Structure (SMILES) | activity change, negative = inhibition
COc1cc(N/C(N)=N/c2nc(C)cc(C)n2)cc(OC)c1 | inconclusive: -54.7%
CC1=C(CC(=O)O)c2cc(F)ccc2/C1=C\c1ccc(S(C)=O)cc1 (stereo unspecified) | inconclusive: -58.3%
CCOC(=O)C1(Cc2ccccc2)CCN(Cc2cnn(-c3ccccc3)c2)CC1 | inconclusive: -40.3%
COc1ccc(CNC(=O)CS(=O)(=O)Cc2nc(-c3cccc(OC)c3)oc2C)cc1 | inactive: -26.7%
CN(C)S(=O)(=O)N1CCN(CC(O)COc2ccc(-c3ccccc3)cc2)CC1 (stereo unspecified) | inactive: -31.5%
COC(=O)c1cc(COc2ccc3c4c(c(=O)oc3c2)CCCC4)c(C)o1 | inconclusive: -42.6%
O=S(=O)(c1ccccc1)N1CCN=C1SCc1ccccc1 | inactive: -20.4%
O=S(=O)(c1ccccc1)c1nc(Nc2cccc(O)c2)sc1Cl | active: -67.1%
C=CCn1c(C)cc(C(=O)CSc2nc3ccccc3o2)c1C | inconclusive: -58.2%
CCN1C/C(=C\c2cccc([N+](=O)[O-])c2)C(=O)/C(=C/c2cccc([N+](=O)[O-])c2)C1 | active: -100%
NC(=S)NN=Cc1ccc(OC(=O)COc2cc(Cl)c(Cl)cc2Cl)cn1 | active: -75.3%
C/C(=N\NC(=O)C1COc2ccccc2O1)c1ccccn1 (stereo unspecified) | active: -102%
CN1CCN(c2ccccc2NC(=O)c2ccc([N+](=O)[O-])cc2Cl)CC1 | inconclusive: -41.9%
COc1cccc(CCNC(=O)CCc2nnc(-c3cc(C)oc3C)o2)c1 | inactive: -14.6%
COC(=O)c1ccc(NS(=O)(=O)c2cc3c4c(c2)CCC(=O)N4CCC3)cc1 | inconclusive: -40.5%
CCOc1ccc(C(=O)NCCc2sc3nc(-c4ccc(Cl)cc4)nn3c2C)cc1OCC | inactive: -24.8%
COc1ccc(/C=N/NC(=O)c2cccnc2)cc1COc1ccc([N+](=O)[O-])c(C)c1 | active: -76%
CCCc1cc(=O)[nH]c(=S)[nH]1 | inconclusive: -49.3%
O=C(Nc1ccc(F)cc1)c1cc(-c2ccccn2)nc2c(Cl)cccc12 | inconclusive: -59.7%
CCc1ccc2c(CN3CC=C(c4ccccc4)CC3)cc(=O)oc2c1 | inactive: -34.8%
Cc1ccc(-c2cc(C(=O)Nc3c(C)n(C)n(-c4ccccc4)c3=O)[nH]n2)c(O)c1C | inconclusive: -41.3%
N#C/C(=C(/O)c1ccc(Cl)c([N+](=O)[O-])c1)c1nc2ccccc2[nH]1 | inconclusive: -40.5%

Structure (SMILES) | activity change, negative = inhibition
O=C(c1cnc(N2CCCCC2)c2ccccc12)N1CCN(c2ccccc2F)CC1 | inactive: 5.23%
C=C1c2ccccc2NC(=S)N1Cc1ccc2c(c1)OCO2 | inactive: 12.1%
COc1ccccc1NS(=O)(=O)c1cc(NC(=O)c2sccc2C)ccc1N1CCCC1 | inconclusive: -49.5%
COc1ccc(-c2nc3cc(NC(=O)Cc4ccc(OC)c(OC)c4)ccc3o2)cc1 | active: -75.6%
O=C(CCCN1C(=O)/C(=C/c2ccccc2Cl)SC1=S)NNC(=O)c1ccccc1Cl | active: -87.8%
CCN1C(=O)C2(Nc3ccccc3-c3nc4ccccc4n32)c2cc(OC)ccc21 (stereo unspecified) | inconclusive: -53.5%
CC(=O)N1c2ccc(S(=O)(=O)NCCC(=O)NCc3ccc(Cl)cc3)cc2CC1C (stereo unspecified) | inconclusive: -54.1%
CCCCC(=O)Nc1ccc(C(=O)N(CC)c2ccccc2C)cc1 | inconclusive: -46%
Cc1ccc(C)c(C(=O)Nc2ccncc2)c1 | inactive: -11.7%
CN(C1CCCC1)C1CCN(C(=O)CNC(=O)/C=C/c2ccccc2)CC1 | inconclusive: -42.9%
C=CCn1c(SCC(=O)Nc2ccc(S(N)(=O)=O)cc2)nnc1-c1cnccn1 | inconclusive: -59.2%
O=C(NCC(c1cccs1)N1CCOCC1)c1cccc([N+](=O)[O-])c1 (stereo unspecified) | inactive: -10.2%
CC(C)(Oc1ccc(Cl)cc1)C(=O)O/N=C(\N)c1ccncc1 | inconclusive: -52.3%
CCC1Oc2ccc(C)cc2N(CC(=O)NCc2ccco2)C1=O (stereo unspecified) | inconclusive: -57.6%
COc1ccc(CNC(=O)c2c(C)oc3c2C(=O)c2ccccc2C3=O)cc1 | inconclusive: -55.6%
CCn1ccnc1CN1CCCC(C(=O)c2ccc3c4c(cccc24)CC3)C1 (stereo unspecified) | inconclusive: -46.2%
O=C(NNC(=S)NC(=O)c1ccc(Br)cc1)c1cccc([N+](=O)[O-])c1 | active: -105%
Cc1cccc(NC(=S)N(CCN2CCOCC2)Cc2ccccc2F)c1 | inactive: 60.8%
C=CCNCCOc1ccc(C(C)(C)c2ccccc2)cc1 | inconclusive: -42.1%
O=C(CCCN1C(=O)/C(=C\c2cccs2)SC1=S)NNC(=O)c1cccnc1 | inconclusive: -57.6%

Exported with tabs: four of the compounds above
Structure (SMILES)	activity change, negative = inhibition
O=c1[nH]c2ccc(NCc3ccccc3OCc3ccc(Cl)cc3)cc2[nH]1	active: -73%
COc1cccc(CCNC(=O)CCc2nnc(-c3cc(C)oc3C)o2)c1	inactive: -14.6%
CCOc1ccc(C(=O)NCCc2sc3nc(-c4ccc(Cl)cc4)nn3c2C)cc1OCC	inactive: -24.8%
C=CCn1c(SCC(=O)Nc2ccc(S(N)(=O)=O)cc2)nnc1-c1cnccn1	inconclusive: -59.2%
